Experimental findings from EPA's ToxRefDB 2 are described below.

As usually defined, the NOAEL is the highest tested level that showed no adverse finding.

One series relates to rat. The settings on record: Carcinogenicity; fischer; Oral; Feed; dose end: 105 week; group: systemic; systemic / in life observation / body weight / body weight + systemic / pathology microscopic / kidney / hyperplasia + systemic / pathology ….
Series [1] deals with mouse. The settings on record: Carcinogenicity; b6c3f1; Oral; Feed; dose end: 105 week; group: systemic; systemic / in life observation / body weight / body weight + systemic / pathology microscopic / kidney / mineralization + systemic / ….
In series [2] the test system is mouse. The settings on record: Subchronic oral toxicity in rodents, b6c3f1, Feed, dose end: 14 week, group: systemic, systemic / clinical chemistry / bile acids / bile acids + systemic / clinical chemistry / sorbitol dehydrogenase / sorbitol dehydrogenase + ….

Turning to `O=C(c1ccccc1)c1ccccc1` [Benzophenone], the no-observed-adverse-effect level (NOAEL) in the series on rat came out at 15 mg/kg/day; in the series on mouse [1], 35 mg/kg/day; in the series with mouse [2], 200 mg/kg/day.
